Experimental data from PubChem BioAssay AID493014 (National Center for Advancing Translational Sciences (NCATS), 2011).
Among all 340,000 compounds or so, about 170 (0.05%) were called active. This list was built around the results that the source calls inconclusive (neither active nor inactive); the mix of calls is not that of the screen. Calls follow the shape of the dose curve; as a rule, active = well fitted inhibition curve with a large enough effect in the signal ratio, with a control signal flat (not every such curve was filed as active); inconclusive = small, poorly fitted or top-dose-only effect, or effect the other way, or a change in a side signal; inactive = flat fitted curve, though single readings scatter; the % refers to the signal ratio. Potencies of inconclusive entries are doubtful fits and often do not repeat.
Potency is read from the fitted curve at half-maximal effect.

Experiment: qHTS Assay to Find Inhibitors of Chronic Active B-Cell Receptor Signaling;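 as to activity change, negative = inhibition: plate controls were basal doxycycline-induced cells for no effect and cells given 10 µM MG132 for full effect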
Conditions: ABC-DLBCL IkBa-CBG/CBR reporter, luminescence ratio (green luciferase fused to IkBa over red control in TMD8 lymphoma cells), 4 h; activity change, negative = inhibition: at 46.1 µM (top of the series)
In short: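 TMD8 ABC-DLBCL cells carrying doxycycline-inducible green luciferase fused to IkappaBalpha plus unfused red luciferase were exposed to compounds (up to 46 uM) for 4 hrs at 37C. Activity came from the overlap-corrected green/red luminescence ratio.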
With `c1ccc(Cn2nnnc2C(c2cccs2)N2CCCCCC2)cc1` (configuration not stated) the activity change, negative = inhibition was “inactive”.
For `O=C(CSc1cccc2cccnc12)N/N=C/c1ccncc1`, the activity change, negative = inhibition was “inactive”.
For `CCOC(=O)C1CCCN1C(=O)c1ccc(OC)c(Br)c1` (configuration not stated), the activity change, negative = inhibition was inconclusive: 1.04%.
For `Cc1ccc(NC(=O)/C=C/c2ccco2)nc1`, the Potency was inconclusive: 29.1 µM [cytotoxic, single point].
In the case of `CN(C(=O)COC(=O)c1cc(-c2ccc(Cl)s2)nc2ccccc12)C1CCS(=O)(=O)C1` (configuration not stated), the Potency is reported as inconclusive: 35.5 µM [rising, single point].
For `O=C(NCCN1CCCCC1)Nc1cccc(C(F)(F)F)c1`, the activity change, negative = inhibition was inconclusive: 14.2%.
With `COc1ccc(OCC(O)Cn2c(N3CCCCC3)nc3c2c(=O)n(C)c(=O)n3C)cc1` (configuration not stated) the activity change, negative = inhibition was “inactive”.
With `O=C(Nc1ccccc1C(=O)O)c1ccc(Br)c(S(=O)(=O)NCc2ccccc2)c1` the Potency was inconclusive: 11.2 µM [falling, partial curve, poor fit].
With `COc1ccc(-c2c(C)n([O-])c3c([n+]2=O)CCC3)cc1OC` the activity change, negative = inhibition was inconclusive: 3.98%.
In the case of `O=C(Nc1ccc2c(c1)OCO2)N1CCN(c2ccccc2Cl)CC1`, the activity change, negative = inhibition is reported as “inactive”.
In the case of `CCOC(=O)c1csc(NC(=O)CC2CCCC2)n1`, the activity change, negative = inhibition is reported as inconclusive: 4.27%.
For `COc1ccc(S(=O)(=O)N(C)C[C@H]2Oc3ccc(NC(=O)Cc4ccccc4)cc3C(=O)N([C@H](C)CO)C[C@@H]2C)cc1`, the activity change, negative = inhibition was inconclusive: -1.15%.
For `COc1ccc(-c2nn3c(-c4ccc(F)cc4)nnc3s2)cc1`, the Potency was inconclusive: 1.58 µM [falling, partial curve].
With `CCCCNC(=O)N(O)C1N(/N=C/c2ccccc2OC)C(=S)SC1(C)C` (configuration not stated) the activity change, negative = inhibition was inconclusive: -11.2%.
With `COc1ccc(N=C2SCC(=O)N2CCc2ccc(OC)c(OC)c2)cc1` the activity change, negative = inhibition was “inactive”.
With `Cc1n[nH]c(C)c1S(=O)(=O)N(CC(=O)Nc1ccc2c(c1)OCCO2)c1ccc(C(C)C)cc1` the activity change, negative = inhibition was inconclusive: -1.92%.
With `CNS(=O)(=O)c1cc(S(=O)(=O)NC)c2cccc3c2c1NC3=O` the Potency was inconclusive: 28.2 µM [falling, partial curve, poor fit].
In the case of `CN1CCN(NC(=O)c2cc(-c3ccc(Cl)s3)nc3ccccc23)CC1`, the activity change, negative = inhibition is reported as “inactive”.
For `CCOC(=O)c1nnc(-c2ccccc2)[nH]c1=O`, the Potency was inconclusive: 22.4 µM [falling, single point].
In the case of `Cc1cccc(Oc2nc(-c3ccccc3)cc(C)c2S(C)(=O)=O)c1C`, the activity change, negative = inhibition is reported as inconclusive: 16.3%.
For `Cc1ccc(Cl)cc1NC(=S)NN`, the Potency was inconclusive: 20 µM [falling, single point].
With `O=S(=O)(NCC(c1ccco1)N1CCc2ccccc2C1)c1ccc(F)cc1` (configuration not stated) the activity change, negative = inhibition was inconclusive: 0.253%.
In the case of `Cc1ccnc(NC(=O)c2cccc3ccccc23)c1`, the activity change, negative = inhibition is reported as “inactive”.
In the case of `COCCCNc1c2c3c(cccc3[nH]c1=O)C(=O)c1ccccc1-2`, the Potency is reported as inconclusive: 20.6 µM [rising, partial curve, poor fit].
In the case of `CN(C)c1oc(-c2cccs2)nc1C#N`, the activity change, negative = inhibition is reported as inconclusive: 4.26%.
With `Cc1cc(Cl)ccc1OCC(=O)NC1CCCC1` the Potency was inconclusive: 2.59 µM [rising, full curve, poor fit].
For `Cc1noc(C)c1COC(=O)CCCc1c[nH]c2ccccc12`, the activity change, negative = inhibition was inconclusive: -0.426%.
For `COc1ccc(C2NC(=S)NC3=C2CCCC3=C2SCCS2)cc1` (configuration not stated), the Potency was inconclusive: 17.8 µM [falling, single point].
In the case of `Cc1ccc(C)c2nc3sc(C(=O)N4CCCc5ccccc54)c(N)c3cc12`, the activity change, negative = inhibition is reported as inconclusive: 18%.
With `COc1ccc(C(=O)NOCc2ccccc2)cc1` the Potency was inconclusive: 5.17 µM [falling, single point].
In the case of `Cc1ccc(-n2cnc(=O)c3cccnc32)cc1`, the activity change, negative = inhibition is reported as “inactive”.
With `COC(=O)CN1C(=O)Nc2ccc(Cl)cc2C1c1ccccc1` (configuration not stated) the activity change, negative = inhibition was inconclusive: -2.68%.
In the case of `CC(C)=CCC/C(C)=C/CNC(=O)C[C@H]1C[C@H](C(=O)N2CCCCC2)[C@@]2(C)c3[nH]c4cc(-c5ccco5)ccc4c3CCN2C1=O`, the activity change, negative = inhibition is reported as inconclusive: -16.7%.
In the case of `O=C(OCC(=O)N1CCOCC1)c1ccc2ccccc2c1`, the Potency is reported as inconclusive: 16.4 µM [falling, partial curve].
In the case of `CN(C)/C=C(/C(=O)c1ccc(Cl)cc1)n1cncn1`, the activity change, negative = inhibition is reported as “inactive”.
In the case of `COc1ccccc1NC(=S)NC(=O)/C=C/c1ccco1`, the activity change, negative = inhibition is reported as inconclusive: -0.875%.
In the case of `Cc1cc(C)nc(SCC(=O)NC2=NC(=O)C(C)S2)n1` (configuration not stated), the activity change, negative = inhibition is reported as inconclusive: 7.58%.
With `COC(=O)c1cc(N=Cc2c(O)c3ccccc3oc2=O)cc(C(=O)OC)c1` the Potency was inconclusive: 3.98 µM [falling, partial curve, poor fit].
In the case of `CCCCN(CCCC)S(=O)(=O)c1ccc(C(=O)Nc2nnc(CSC)o2)cc1`, the activity change, negative = inhibition is reported as “inactive”.
With `C=CCNC(=S)NNC(=O)c1cccn(Cc2ccc(Cl)c(Cl)c2)c1=O` the Potency was inconclusive: 17.8 µM [falling, single point].
For `COc1ccc(OCCNC(=O)c2cc(C3CC3)nc3c2cnn3C(C)C)cc1`, the activity change, negative = inhibition was inconclusive: 4.97%.
In the case of `CCCC(CCC(=O)Nc1nccs1)C(=O)O` (configuration not stated), the activity change, negative = inhibition is reported as inconclusive: 8.76%.
In the case of `NC(=O)C1CCN(Cc2cccc(OCc3ccccc3)c2)CC1`, the activity change, negative = inhibition is reported as inconclusive: 0.426%.
With `CSc1cccc(NC(=O)CN(c2cccc(C)c2)S(C)(=O)=O)c1` the activity change, negative = inhibition was inconclusive: 0.523%.
With `O=C(CCc1ccccc1)Nc1ncc([N+](=O)[O-])s1` the activity change, negative = inhibition was inconclusive: -93.4%.
For `O=C(Nc1ccccc1)OCC1CCCN2CCCCC12` (configuration not stated), the Potency was inconclusive: 23.1 µM [falling, single point].
In the case of `CCOC(=O)c1ccc(NCCOC)c([N+](=O)[O-])c1`, the activity change, negative = inhibition is reported as inconclusive: -2.02%.
With `CCOC(=O)c1ccc(CC(=O)c2oc3cc(O)ccc3c2C)o1` the activity change, negative = inhibition was “inactive”.
In the case of `Cc1ccc(S(=O)(=O)N2[C@@H](c3ccc(C(C)C)cc3)C(C(=O)O)=C[C@H]2C(C)(C)C)cc1`, the activity change, negative = inhibition is reported as “inactive”.
For `CC1(C)CC1C(=O)Nc1ccc([N+](=O)[O-])cc1Br` (configuration not stated), the activity change, negative = inhibition was inconclusive: 15.6%.
With `O=C(Nc1ccc(CN2CCOCC2)cc1)c1ccc(Br)cc1` the activity change, negative = inhibition was “inactive”.
In the case of `CCOc1cc(/C=C2\CCC/C(=C\c3cc(Cl)c(O)c(OCC)c3)C2=O)cc(Cl)c1O`, the Potency is reported as inconclusive: 10 µM [falling, partial curve].
In the case of `COc1ccc(OC)c(C2C(C#N)=C(N)N(N(C)C)C3=C2C(=O)CCC3)c1` (configuration not stated), the activity change, negative = inhibition is reported as inconclusive: 6.75%.
In the case of `CCN(CC(=O)Nc1c(F)cccc1F)C(=O)c1cc(-c2cccs2)nn1-c1ccccc1`, the activity change, negative = inhibition is reported as inconclusive: -3.61%.
For `CC(C)N1C(=O)CCC1C(=O)NCc1cccs1` (configuration not stated), the activity change, negative = inhibition was inconclusive: -19.9%.
In the case of `N#C/C(=C\c1cn(Cc2ccc(C#N)cc2)c2ccccc12)C(=O)NCc1cccs1`, the activity change, negative = inhibition is reported as “inactive”.
For `COc1cc2c(cc1OC)CN(C(=O)c1ccc(Cl)c(S(=O)(=O)N3CCCC3)c1)CC2`, the activity change, negative = inhibition was inconclusive: 0.484%.
In the case of `CCOC(=O)C1CCCN(CC(=O)Nc2c(C(=O)OC)[nH]c3ccc(Cl)cc23)C1` (configuration not stated), the activity change, negative = inhibition is reported as inconclusive: -18.7%.
For `COC(=O)CC1C(=O)NC(C)=C1C(=O)OC` (configuration not stated), the activity change, negative = inhibition was inconclusive: -2.85%.
With `COc1cc2c(cc1OC)CN(CC(=O)NC(=O)NC1CCCCC1)CC2` the activity change, negative = inhibition was inconclusive: 0.622%.
In the case of `O=C(O)c1ccc(-c2nnn(Cc3cccc(C(F)(F)F)c3)n2)cc1`, the activity change, negative = inhibition is reported as inconclusive: 3.56%.
For `CC(C)c1nc2ccccn2c1NC1CCCCC1`, the Potency was inconclusive: 7.08 µM [falling, partial curve].
In the case of `CCn1c(-c2cccnc2Cl)nc2cc(Cl)c(Cl)cc21`, the activity change, negative = inhibition is reported as “inactive”.
For `COCCOC(=O)c1[nH]c2c(c1C)C(=O)CC(c1cccs1)C2` (configuration not stated), the Potency was inconclusive: 35.5 µM [falling, single point].
With `CC(C)c1nnc(NC(=O)c2c(O)c3cccc4c3n(c2=O)CCC4)s1` the activity change, negative = inhibition was inconclusive: -2.91%.
For `O=c1c2ccsc2ncn1Cc1cccc(C(F)(F)F)c1`, the activity change, negative = inhibition was inconclusive: -0.361%.
In the case of `Cc1ccc(CNc2ccc3c(c2)ncn3C(C)C)cc1`, the activity change, negative = inhibition is reported as inconclusive: 10.9%.
For `Cc1ccc(NC(=O)C(C)N2C(=O)c3ccccc3C2=O)c(C)c1` (configuration not stated), the activity change, negative = inhibition was “inactive”.
For `CC(=O)c1ccc(OCC(O)CN2CCc3ccccc3C2)cc1` (configuration not stated), the activity change, negative = inhibition was inconclusive: 2.85%.
In the case of `C[n+]1c2n(c3ccccc31)N=C(c1ccc(Cl)cc1)CS2`, the activity change, negative = inhibition is reported as inconclusive: -19.5%.
For `CCN1C(=O)/C(=C\N2CCN(c3ccc(F)cc3)CC2)SC1=S`, the activity change, negative = inhibition was inconclusive: 24.2%.
For `CCC(C)N(C(=O)COc1ccc(Cl)c2cccnc12)C1CCS(=O)(=O)C1` (configuration not stated), the Potency was inconclusive: 20.6 µM [falling, partial curve].
With `O=C(Nc1cccc(S(=O)(=O)N2CCCCC2)c1)c1ccc2c(=O)n3c(nc2c1)CCCCC3` the Potency was inconclusive: 4.61 µM [falling, full curve, poor fit].
For `CCOC(=O)CN1C(=O)C(O)(c2c(C)[nH]c3ccccc23)c2ccccc21` (configuration not stated), the activity change, negative = inhibition was “inactive”.
With `O=C(CCl)Nc1cccc(Oc2cnccn2)c1` the Potency was inconclusive: 20 µM [falling, partial curve].
In the case of `COc1ccc(C(C#N)N2CCC(c3ccccc3)=N2)cc1` (configuration not stated), the activity change, negative = inhibition is reported as inconclusive: 4.61%.
With `CCOc1ccccc1/C=N/Nc1nc2ccccc2o1` the activity change, negative = inhibition was inconclusive: -12.2%.
For `CCOC(=O)C1=CN(Cc2ccco2)S(=O)(=O)NC1c1ccc(Br)cc1F` (configuration not stated), the activity change, negative = inhibition was inconclusive: -2.09%.
For `COc1ccc(OC)c(NC(=O)Cn2cc(C#N)c3ccccc32)c1`, the activity change, negative = inhibition was “inactive”.
In the case of `O=C(CCc1ccccc1)NCC(=O)N/N=C/c1ccc(O)cc1O`, the Potency is reported as inconclusive: 35.5 µM [falling, single point].
For `C=CCOc1ccccc1CNn1nnnc1N`, the activity change, negative = inhibition was inconclusive: 1.65%.
With `Cc1c(OCC(=O)N(C)C)ccc2c(-c3ccccc3)cc(=O)oc12` the activity change, negative = inhibition was inconclusive: -9.85%.
